# From PubChem BioAssay AID2685 (National Center for Advancing Translational Sciences (NCATS), 2010)
# The other results are listed elsewhere or left out. Shown are side measurements of this screen, not its main read-out; they come without a call. Most of these compounds were active or inconclusive in the main read-out, so they are no random draw. Words in brackets tell the shape of the fitted curve; partial curves, single points and poor fits give uncertain potencies.
# Assay: qHTS Assay for Lipid Storage Modulators in Drosophila S3 Cells;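 as to cell number change: cells counted by Cell Tracker Red CMTPX staining in the red channel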
# Details: BODIPY lipid droplet fluorescence, 18-24 h; for cell number change: measured here: cell count max response, cells fed with added oleic acid
# In short: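 Drosophila S3 cells loaded with oleic acid (400 uM, as added) and compounds at several concentrations; lipid droplets imaged by 488-nm laser-scanning cytometry, 500–530 nm intensity and object ratio to cell channel. Percent activity normalized to 20 uM Triacsin C.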
# [1] = measured here: lipid fluorescence (Fed channel) AC50, cells fed with added oleic acid
# [2] = measured here: cell number channel AC50, cells fed with added oleic acid
Structure (SMILES),cell number change,AC50 [1],AC50 [2]
O=C(CN1CCOCC1)Nc1cc(Cl)ccc1Cl,-18.7%,"29.1 µM [rising, single point]",
CCOC(=O)CCP(=O)(O)C(O)c1ccccc1 (stereo not given),-26.8%,,
CC(C)(C)c1ccc(OCCn2ccccc2=O)cc1,73.3%,"20.6 µM [rising, partial curve]","29.1 µM [rising, single point]"
CCOc1ccc(N(C(=O)c2snc(C(N)=O)c2N)C(C)C(=O)NC2CCCCC2)cc1 (stereo not given),27.8%,,
Cc1ccc(OCC(O)CNS(=O)(=O)c2ccccc2C(=O)N2CCCCC2)cc1 (stereo not given),,,"0.0731 µM [falling, full curve, poor fit]"
CC(=O)c1ccc(OCC(=O)N(CCC2=CCCCC2)c2c(N)n(Cc3ccccc3)c(=O)[nH]c2=O)cc1,-28.3%,"29.1 µM [falling, partial curve, poor fit]",
Cc1ccc2cc(CN(Cc3cccs3)Cc3nnnn3CC3CCCO3)c(=O)[nH]c2c1C (stereo not given),,"1.84 µM [rising, partial curve]",
COc1cc(/C=N/O)cc(Br)c1OS(=O)(=O)c1ccc(C)cc1,-67.3%,"4.61 µM [falling, full curve]","10.3 µM [falling, partial curve]"
Cc1ccc(NC(=O)CSc2nc(=O)n(CCN3CCOCC3)c3c2CCCC3)cc1,-12.6%,"29.1 µM [rising, single point]",
O=C(COc1ncnc2scc(-c3ccc(Cl)cc3)c12)NCc1ccco1,-0.778%,,
COc1ccc(/C=N\NC(=O)c2sc(N)nc2C)cc1OC,-12.2%,"13 µM [falling, partial curve, poor fit]",
CC(NC(=O)CN(C)CC(=O)Nc1ccccc1Br)c1ccccc1 (stereo not given),7.87%,,
CC(C)=C1C(=O)NN(c2ccc(C)c(Cl)c2)C1=O,-20.4%,,
CCOC(=O)Cn1nc(C)n(-c2c(C)cccc2C)c1=O,-35.8%,"29.1 µM [falling, single point]",
Nc1cccc(-c2cnc3ccccc3n2)c1,-18.9%,"0.731 µM [falling, partial curve, poor fit]",
CCC(OC(=O)c1nsc(Cl)c1Cl)C(=O)NCc1ccco1 (stereo not given),1.11%,"29.1 µM [falling, single point]",
O=C(NC1CC1)C1C2C3C4CC5C3C5C4C12 (stereo not given),7.73%,"16.4 µM [falling, partial curve, poor fit]",
Cc1ccc([N+](=O)[O-])cc1NC(=O)c1ccccc1,80.2%,,"3.66 µM [rising, full curve]"
O=C(OCCOc1ccc(F)cc1)c1ccc(S(=O)(=O)N2CCCC2)cc1,-13.7%,"7.31 µM [falling, partial curve, poor fit]",
CC(=O)c1ccccc1NC(=O)CCCNC(=O)c1ccc(Cl)cc1,19.2%,,
O=C(CN(Cc1ccccc1F)S(=O)(=O)c1ccc(Cl)cc1)NCCCO,1.15%,"4.11 µM [falling, full curve]",
NNC(=O)CSCc1nc(-c2ccc(Cl)cc2)cs1,16%,,

Structure (SMILES),cell number change,AC50 [1],AC50 [2]
CC(=O)N1CCN(c2ccc(NC(=O)c3cc4ccccc4o3)cc2)CC1,5.03%,"6.51 µM [falling, single point]",
CCCCC1CCC(C(=O)Nc2ccccc2N2CCOCC2)CC1 (stereo not given),-32.9%,"32.6 µM [falling, single point]","29.1 µM [falling, single point]"
CNC(=O)CN(c1ccc(Oc2ccccc2)cc1)S(=O)(=O)c1ccc(C)cc1,31.7%,"29.1 µM [rising, single point]","32.6 µM [rising, single point]"
CCC(C(=O)NC1CCCC1)N(C(=O)Cn1nnc(-c2ccc(OC)c(OC)c2)n1)c1cccc(O)c1 (stereo not given),-47.4%,,"32.6 µM [falling, partial curve]"
CC1CCCN(C(=O)CN2C(=O)c3ccccc3S2(=O)=O)C1 (stereo not given),24.3%,,
O=C(CSc1ccc2c(c1)OCCO2)NC(=O)Cc1ccccc1,-14.2%,,"0.13 µM [falling, full curve, poor fit]"
CS(=O)(=O)N(CCc1ccccc1)CC(=O)NCc1ccccc1Cl,-68%,"20.6 µM [falling, partial curve]","29.1 µM [falling, partial curve, poor fit]"
CCC(C)N1CC23C=CC(O2)C(C(=O)OCc2ccccc2)C3C1=O (stereo not given),-6.51%,"0.146 µM [falling, full curve, poor fit]",
O=C1c2ccccc2C(=O)c2c1ccc1c(=O)n(C3CCCCC3)[nH]c21,-37.1%,"11.6 µM [falling, partial curve]","14.6 µM [falling, single point]"
CCC(C)N1CNc2c(c(=O)[nH]c(=S)n2-c2cccc(C)c2)C1 (stereo not given),2.21%,"6.51 µM [falling, single point]",
Cc1cc(C)n2nc(C(=O)Nc3ccc4c(c3)CCC4)nc2n1,21.3%,,
Cc1ccc(/C=N/NC(=O)Cn2cnc3c2c(=O)n(C)c(=O)n3C)s1,24.8%,"10.3 µM [rising, partial curve, poor fit]",
CC1CN(C(=O)COC(=O)c2cccc(NS(=O)(=O)c3ccccc3)c2)CC(C)O1 (stereo not given),-24.4%,"2.59 µM [falling, full curve]","2.59 µM [falling, full curve, poor fit]"
CCCOc1ccc(-c2nnn(CC(=O)Nc3cccc(C(=O)OC)c3)n2)cc1,37.9%,,"3.26 µM [rising, full curve, poor fit]"
CN(C)CC(O)CN(c1ccccc1)c1ccccc1 (stereo not given),7.58%,"0.00461 µM [falling, full curve, poor fit]",
O=C(CCN1C(=O)/C(=C/c2cccc(Br)c2)SC1=S)NNC(=O)c1cccnc1,-11.3%,,
Cc1nc(Cl)sc1C(=O)Nc1ccc(C(C)(C)C)cc1,,"6.51 µM [falling, single point]",
O=C1CCC(C(=O)N2CCN(c3ccccc3)CC2)CN1CC1CCCCC1 (stereo not given),,,"0.731 µM [rising, single point]"
O=C(CSc1nccc(=O)[nH]1)c1ccco1,-37.7%,"0.58 µM [falling, full curve]","0.731 µM [falling, full curve]"
COc1ccc(C2CC(c3ccc(OC)cc3)n3nc(NS(C)(=O)=O)nc3N2)cc1 (stereo not given),0.826%,"0.0058 µM [falling, full curve, poor fit]",
O=C(CCc1nnc(-c2ccc3c(c2)OCO3)o1)NCCc1ccccc1F,,"0.58 µM [falling, single point]",
COc1cc2ncnc(NCc3ccc(C)cc3)c2cc1OC,-2.21%,"29.1 µM [falling, single point]",

# Quoted from above, 2 compounds:
Structure (SMILES),cell number change,AC50 [1],AC50 [2]
CC(=O)c1ccc(OCC(=O)N(CCC2=CCCCC2)c2c(N)n(Cc3ccccc3)c(=O)[nH]c2=O)cc1,-28.3%,"29.1 µM [falling, partial curve, poor fit]",
Cc1ccc2cc(CN(Cc3cccs3)Cc3nnnn3CC3CCCO3)c(=O)[nH]c2c1C (stereo not given),,"1.84 µM [rising, partial curve]",

# Single records, as listed above:
# `CC(=O)N1CCN(c2ccc(NC(=O)c3cc4ccccc4o3)cc2)CC1` as listed: cell number change: 5.03%; AC50 [1]: 6.51 µM [falling, single point]
# `CNC(=O)CN(c1ccc(Oc2ccccc2)cc1)S(=O)(=O)c1ccc(C)cc1` as listed: cell number change: 31.7%; AC50 [1]: 29.1 µM [rising, single point]; AC50 [2]: 32.6 µM [rising, single point]

# Next compounds:

Structure (SMILES),cell number change,AC50 [1],AC50 [2]
O=C1ON=C(c2ccccc2)/C1=C/c1ccco1,,"29.1 µM [falling, single point]",
CCS(=O)(=O)N1CCN(c2nc(-c3ccccc3)cs2)CC1,-0.0729%,"6.51 µM [rising, single point]",
O=C(COc1ccccc1)NCC(=O)Nc1cccc(S(=O)(=O)NC2=NCCC2)c1,-42.1%,,"32.6 µM [falling, single point]"
Cc1cc(C)c2c(=O)[nH]c(SCC(=O)c3ccc(C(C)C)cc3)nc2n1,-7.98%,,"1.3 µM [falling, full curve, poor fit]"
COc1ccc(-c2cc(C(F)F)n3ncc(C(=O)N4CCN5CCCC5C4)c3n2)cc1 (stereo not given),-11.8%,"5.8 µM [rising, single point]",
O=C1CC(N2CCC(c3nc4ccccc4[nH]3)CC2)C(=O)N1c1cccc(F)c1 (stereo not given),-24.6%,"0.146 µM [falling, full curve, poor fit]","0.0731 µM [falling, full curve, poor fit]"
Cn1c(=O)[nH]c2c(nc(-c3ccc(Cl)cc3)n2C)c1=O,67.6%,,"29.1 µM [rising, single point]"
CCCNC(=O)c1n[nH]c(=O)c2ccccc12,6.6%,"3.66 µM [rising, single point]",
NC12CC3CC(C1)CC(CC(=O)O)(C3)C2,-24.3%,,
CCOCCCNC(=O)CN(c1cc([N+](=O)[O-])ccc1OC)S(C)(=O)=O,0.723%,"2.06 µM [falling, partial curve]",
Cc1ccc(-n2nc3c(=O)n(CCCC(=O)N4CCCCC4)nc(C)c3c2C)cc1,-1.42%,,
Nc1cc(C(=O)OCC(=O)Nc2ccc(N3CCOCC3)cc2)ccc1Cl,-12%,"4.11 µM [falling, full curve, poor fit]",
CNC(=O)c1c(C)nc(SCC(=O)NCc2ccc(OC)cc2)c(C#N)c1-c1ccco1,-12.5%,"6.51 µM [rising, partial curve, poor fit]",
Cc1cccn2c(=O)c(C=O)c(Cl)nc12,19.2%,,
CSCCC(NC(=O)c1ccccc1Br)C(=O)NC(C)CCc1ccccc1 (stereo not given),22.4%,"11.2 µM [rising, single point]",
CCN(CC)CCNC(=O)c1ccccc1N,,"0.116 µM [falling, full curve, poor fit]",
O=C(C1CCC(CNc2c(N3CCCCC3)c(=O)c2=O)CC1)N1CCN(c2ccccn2)CC1 (stereo not given),18%,"29.1 µM [rising, single point]",
Cc1cc(C)c(C#N)c(Cl)n1,,,"0.082 µM [rising, full curve, poor fit]"
CN(C)C(CNC(=O)c1ccccc1C(F)(F)F)c1ccco1 (stereo not given),-0.806%,,
CC(C)(C)NC(=O)CN(C(=O)CS(=O)CC(=O)Nc1ccc(F)cc1)c1ccc(F)c(Cl)c1 (stereo not given),3.41%,"3.66 µM [rising, single point]",
